# Results taken from patent publication US7803824B2, “Use of inhibitors of Jun N-terminal kinases to treat glaucoma” (Alcon, Inc., priority 2004, dated 2010).
# Entries after “also recorded” stand apart in the source; their conditions may differ. At least one structure is not confirmed: it was looked up by name or label, or the drawing left a doubt.
# Legend:
# [1] = tested on: human trabecular meshwork (GTM-3) cells; assay: Fibronectin assay (TGFβ2-stimulated fibronectin in culture supernatants, ELISA); type: cell-based; conditions: TGFβ2 5 ng/mL, co-incubation 24 h
# [2] = tested on: adult rat retinal ganglion cells (RGC); assay: Cultured adult rat RGC survival under cytotoxic insults (Example 4); type: cell-based
# Protocol: Adult Sprague-Dawley rats were euthanized by CO2 asphyxiation. Their eyes were enucleated and the retinas isolated. Retinal cells were treated with of papain solution for 25 min at 37° C., then washed 3 times with 5 mL RGC culture medium (Neurobasal medium with various nutrient supplements+1% fetal calf serum). Retinal cells were dispersed by trituration. Cell suspension was placed onto poly-D-lysine- and laminin-coated 8-well chambered culture slides. The cells were then cultured in 95% air/5% CO2 at 37° C.
# For glutamate-induced toxicity studies, cells were pre-treated with vehicle or the indicated compounds for 30 minutes, followed by 100 μM glutamate for 3 days.
# For trophic factor withdrawal studies, three trophic factors, basic fibroblast growth factor, brain-derived neurotrophic factor, and ciliary neurotrophic factor, were removed from the culture medium. Cells were cultured in this medium with the indicated compounds for 3 days.
# At the end of the incubation period, the cells were fixed and labeled for Thy-1, a RGC marker, by immunocytochemistry. Cell survival was quantified by manually counting Thy-1-positive healthy cells in each well.
# [3] = tested on: optic nerve; assay: Ischemia/Reperfusion-Induced Optic Neuropathy in the Rat; type: in vivo; conditions: Wistar rat, 60 min ischemia, SP600125 30 mg/kg i.p. daily for 16 days, score 1 no damage to 5 total damage
# [4] = tested on: rat RGC; assay: Rat Retinal Ganglion Cell Survival Assay (Example 2); type: cell-based; conditions: 3 days; for RGC survival with glutamate (Thy-1 positive cells): 100 μM glutamate; for RGC survival after trophic factor withdrawal (Thy-1 positive cells): bFGF, BDNF, CNTF removed
smiles,measurement,setting,value
Oc1c2ccccc2c2c3c(cccc13)N=N2 [SP600125],level of fibronectin in TGFβ2-treated GTM-3 cell supernatants,[1],dose-dependent reduction
same,"RGC survival, glutamate-induced toxicity (Thy-1-positive healthy cells)","[2]; 30 min pre-treatment, then 100 μM glutamate for 3 days",protect; also recorded: protective against this insult in a dose-dependent manner
same,"RGC survival, trophic factor withdrawal-induced toxicity (Thy-1-positive healthy cells)","[2]; bFGF, BDNF, CNTF removed, 3 days",protect; also recorded: protective against this insult in a dose-dependent manner
same,optic nerve damage score,[3]; 30 mg/kg,significant reduction
same,optic nerve damage score,"[3]; listed as SP-600125, 30 mg/kg",protective
same,RGC survival with glutamate (Thy-1 positive cells),[4],significantly and completely protected
same,RGC survival with glutamate (Thy-1 positive cells),[4]; listed as SP-600125,protective
same,RGC survival after trophic factor withdrawal (Thy-1 positive cells),[4],significantly and completely protected
same,RGC survival after trophic factor withdrawal (Thy-1 positive cells),[4]; listed as SP-600125,protective
